According to the supplement of paper PMC3334620:
Whole data set: some 33,000 sequences, median “E-score (-0.5 to 0.5)” near -8e-05, cut for the highest 2% near 0.23. The list shows a part of the results.

Target: T1, Nrg2 (UniProt P38082)
T1 sequence: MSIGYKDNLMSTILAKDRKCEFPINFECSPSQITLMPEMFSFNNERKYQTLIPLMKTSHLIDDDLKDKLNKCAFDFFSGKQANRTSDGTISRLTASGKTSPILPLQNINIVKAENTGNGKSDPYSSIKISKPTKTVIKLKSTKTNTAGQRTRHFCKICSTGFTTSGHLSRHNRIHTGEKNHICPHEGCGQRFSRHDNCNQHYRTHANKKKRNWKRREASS
Test: PBM E-score (8-mer binding enrichment) (E-score (-0.5 to 0.5)); higher = stronger / more preferred TF binding
Conditions: protein concentration: 100 nM; construct: GST-full length
Method in brief: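 The E-score, a modified Wilcoxon-Mann-Whitney statistic, was computed by the Universal PBM Analysis Suite for every ungapped eight-base word pooled with its reverse complement. Scans behind it were normalised with masliner after bound GST-tagged yeast transcription factors were detected with fluorescent anti-GST. The proteins, at about 100-200 nM, had been applied to universal all-10-mer Agilent arrays made double-stranded by primer extension.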

Sequence	PBM E-score
CGCTGTTC	-0.232
CTGTTTGA	0.0249
GACTTCGC	0.167
AGTCCCTG	0.294
CCCTAGAC	0.00889
AATGTAGG	-0.224
CTAATCCA	-0.00436
CAGAACCG	0.093
GAACTATC	0.0513
TAGCCCAA	0.0612
GTGCACAC	-0.173
CAACAAAC	0.0713
ACACTCTG	-0.0131
ATAGCGCG	0.119
CCGCCACC	-0.131
ACTCTGCG	0.132
GCTTCTCC	-0.2
TTCGCCAA	-0.18
CTGGTACC	-0.119
ATGCGGAC	-0.169
CGTCAATA	-0.0899
CATCGGCG	-0.0373
ACAGTGAC	0.0392
GGTACCAC	-0.151
AGACTCGA	-0.139

Sequence	PBM E-score
ATTTGGCG	-0.162
ATAGTACC	0.0238
CTCGGCTA	0.0645
CTCTGGAC	0.0875
GCATAAGA	0.0418
AATACCAC	0.049
ATTGCCAG	0.112
AAGTCAGC	0.0916
AGCACTGC	-0.0874
AAATTTTG	-0.149
AATTTCGG	-0.00627
ACTGTCCT	0.00021
GTTCAGAA	0.0161
AATTACCG	-0.0326
AACATTCG	-0.0394
ACAGACCC	-0.00923
TACCTGAA	0.0117
AACAAGAA	0.091
AGTGGATG	0.0975
AAAGCCCG	-0.147
GTATTACA	0.0254
CTGCGCGC	0.306
AACTATCA	0.0359
CGGTGCCA	-0.279
ACGGCCTA	0.0182

Sequence	PBM E-score
AAAGGTGG	-0.00761
TCCGCGCA	0.0506
ACTCAGAT	0.109
ACGATTAA	-0.0411
ACCTGAGC	0.0385
AGATGGCA	0.0923
TCTATTCA	0.0842
AGCGGTCA	-0.00422
CATTCGGC	-0.0555
GGCTGACA	-0.00063
CGTACATA	0.0267
TACTTCTA	-0.0235
AATACAGA	0.0334
ACGAGAGG	-0.0191
AAGCCGAG	0.111
ACCCGACT	-0.00436
GCGAATCC	-0.0352
GACGCGAC	-0.121
GTTTTGTA	0.131
CTCTTGAC	-0.101
CTCCCTTC	-0.245
AACGGGTC	0.0316
AGCAAGAT	0.048
AGCGCCCT	0.036
AAGAGGCC	-0.148

Sequence	PBM E-score
GTTCGTGA	-0.203
AGTACGTA	0.0307
CAAAGTGG	-0.105
GACCGACC	0.0397
GTGACCGA	-0.158
GGTAGACC	-0.00427
ACGAAGCG	-0.0952
CTTGCGCC	-0.0573
CAGGTCCA	0.0188
CCGACTAC	-0.15
ATCGACGA	0.0881
CACCACTG	-0.0331
CTAGTGAA	-0.0581
ATCCCCAC	0.247
ACCCAAAC	0.145
ATGTCTTC	-0.23
CCAGGGAC	0.366
GCTGATGA	0.0708
AGCTGCGA	0.0776
GCCATTCA	0.155
ATTAAGGA	0.069
ATTCTTTG	0.00386
CTCTAATC	-0.214
CACGAGTC	-0.174
GACCGGAC	-0.168

Sequence	PBM E-score
CAGCGGAG	0.0363
ACCTTCGC	-0.0876
CAACAGCA	0.0942
AATCATAG	0.235
ATATTGAA	-0.00511
CAAACGAG	0.0526
CTTACCCC	-0.225
ACTTGTTG	-0.17
CTCAGAAA	0.101
AAGAGACG	-0.0193
AGTACGCA	-0.179
CGGCTCTA	-0.0697
CAGACTAA	-0.103
AAGGAGTG	0.0233
ATGTACCG	0.0159
ACCAATAT	0.213
ACCTCGCA	0.00775
AACAGCAA	0.135
CGCCAAGC	-0.148
ACACACGC	0.0319
AACCGTGA	-0.142
GAGACCTC	-0.0945
CACGGTGA	0.0843
CTCGGCGC	0.0845
ACGCAATG	-0.0734

Sequence	PBM E-score
CGGCCATA	-0.123
ATAGCACC	-0.162
CGCCATAG	0.0758
CAGAGTCG	0.0169
CAGCATAG	-0.0656
ATGTAAAG	0.0456
AGGTCTTA	-0.131
CGTCGGCC	0.0775
ATGACAAG	0.142
GACTTGGC	-0.202
GAGCCTTA	-0.167
GTACGTAC	-0.159
GCAAAACA	0.136
GTCATTCA	0.102
AATACTAT	0.0268
CCCTCGAC	0.0444
ACCCGTAA	0.0728
CGCGGGGA	0.165
AAGATATA	0.114
ATCTATCA	-0.036
CCTGTGTA	0.111
CTGCAACA	0.0107
AGAGCAAA	0.0248
CCAAGAGG	-0.00579
AGGGTGTC	0.151

Part of the list above in another layout:
ATGACAAG
  PBM E-score = 0.142
GCAAAACA
  PBM E-score = 0.136
CGCGGGGA
  PBM E-score = 0.165
CCAAGAGG
  PBM E-score = -0.00579

Next results follow:

Sequence	PBM E-score
CAGGAGAG	-0.104
AGAGATAC	0.186
AAGGAGGC	-0.154
ATAGAATA	0.156
CAAGACCA	-0.177
CCCCCTCG	-0.32
GTCTGCTA	0.0308
ATTATGGG	-0.00822
CATGACGC	-0.0369
ACTTCTGC	-0.00759
ATATACTA	0.307
CCTGCCTA	0.0395
AGTTGTTG	0.0587
CAGAGCGG	-0.069
CCCGTGTA	-0.0764
CCTGAGAA	0.00042
TCAGTCGA	0.0823
AAGAAACG	-0.00869
GGCTACCC	-0.112
GGATCCGA	0.0229
ACCCGGAC	-0.235
AAAAAACA	0.214

5 records drawn at random from those above, as already listed:
Sequence	PBM E-score
ACCCGGAC	-0.235
AAGGAGGC	-0.154
AAGAAACG	-0.00869
CAAGACCA	-0.177
CCTGAGAA	0.00042
